Results taken from US11191293B2, “Nutritional composition and infant formula for promoting myelination of the brain” (NESTEC S.A., priority 2015, dated 2021).
For at least one compound, name, drawing or mass did not settle the structure.

Test system: brain myelination (myelin water fraction)
Assay: Cross-sectional correlation of infant formula nutrient content with brain myelination (mcDESPOT MRI myelin water fraction)
Type: in vivo, human
Settings: formula-fed children up to 5 years of age; brain regions named per nutrient
Procedure: MRI (Magnetic Resonance Imaging): MRI brain scans of infants and children between 0 and 5 years were acquired using a white matter imaging technique. This technique provides a quantitative measure, the Myelin Water Fraction (MWF), which is a surrogate marker of myelin content in the brain. When mapped as a function of time across early childhood, myelination trajectories can be generated.
Infant formula composition: six infant formulas fed to infants participating in a study were analyzed for their composition/level of myelin-relevant nutrients.
Infants included in this study were drawn from a larger longitudinal study of normal brain and behavioral development: the Brown University Assessment of Myelination and Behavior Across Maturation (BAMBAM). To focus on neurotypical development, children with known potential risk factors for learning, neurologic, or psychiatric disorders were specifically excluded during recruitment and enrollment. […]
Each infant was scanned using the mcDESPOT (multicomponent Driven Equilibrium Single Pulse Observation of T1 and T2) white matter imaging technique Deoni et al. (Magn. Reson. Med. 2008, 60:1372-1387), which provides a quantitative measure of the myelin water fraction (MWF)—a measure of myelin content—at each point throughout the brain. […]

Q: For `CC/C=C\C/C=C\C/C=C\C/C=C\C/C=C\C/C=C\CCC(=O)O` [DHA, docosahexaenoic acid], which “association of nutrient content of infant formula with myelination (myelin water fraction) over time in the brain” value is on record?
A: an association with myelination (myelin water fraction) was observed
